The nature of this data set: general procedure: hybrid (solid and solution phase) peptide synthesis; HATU/DIPEA. To be noted: for final LC-MS purity: whole synthesis, UPLC-MS.

HELM strings list residues between dots; [ac] is acetyl, [am] amide, other brackets name non-standard units.

Where the note is “late stage modification step”, “PEPTIDE1{[desaminoArg].Q.[hPhe].R.[Kbt]}$$$$V2.0” displayed a step yield of 56%. The “final LC-MS purity” value (run 1) worked out at 98.21% and the “final LC-MS purity” value (run 2) was determined as 98.2%.
In the case of “PEPTIDE1{[desaminoArg].Q.F.R.[Kbt]}$$$$V2.0”, the “final LC-MS purity” value turned out to be 98.11%. Further, the step yield (coupling step) amounted to 100%. In addition, where the note is “late stage modification step”, the step yield worked out at 38%.
Consider “PEPTIDE1{[desaminoArg].Q.[hPhe].[Arg(OH)bt]}$$$$V2.0”, for which the “final LC-MS purity” value was 99.5%.

The record behind these values is paper PMC11843629 (Journal of Enzyme Inhibition and Medicinal Chemistry, 2025).
